{
  "source": "PubChem BioAssay AID540276",
  "about": "(National Center for Advancing Translational Sciences (NCATS), 2011)",
  "note": "Screen size: about 300,000 compounds; about 5,400 (1.8%) were called active. The inconclusive results got no clear call from the source; some entries with a clear call stand among them for comparison. Calls come from the whole dose curve; tested in HEK293 cells. Potencies of inconclusive entries are doubtful fits and often do not repeat. Potency is the fitted concentration of half-maximal effect.",
  "data": [
    {"assay": "qHTS for inhibitors of binding or entry into cells for Marburg Virus", "conditions": "Marburg virus pseudotyped entry inhibition, cell reporter; series mostly up to 37.8 µM", "values": [
      {"smiles": "CCOC(=O)c1ccc(NC(=O)c2cccnc2)cc1", "Potency": "inactive"},
      {"smiles": "Cn1c(=O)n(C)c2cc([N+](=O)[O-])c(N3CCN(C(=O)c4ccccc4Br)CC3)cc21", "Potency": "inconclusive: 14.1 µM [inhibitor, partial curve, poor fit]"},
      {"smiles": "COc1cc(NC(=S)NCCCN2CCOCC2)c(OC)cc1Cl", "Potency": "inconclusive: 3.16 µM [activator, single point]"},
      {"smiles": "CCCCOc1ccc(/C=C/C(=O)Nc2ccc([N+](=O)[O-])cc2C)cc1", "Potency": "inactive"},
      {"smiles": "NS(=O)(=O)c1ccc(NC(=O)COC(=O)c2cn(-c3ccccc3)nc2-c2ccccc2)cc1", "Potency": "inconclusive: 35.5 µM [inhibitor, single point]"},
      {"smiles": "CCN(CC(=O)Nc1cc(Cl)ccc1C)C(=O)c1cc([N+](=O)[O-])ccc1N1CCOCC1", "Potency": "inconclusive: 28.2 µM [inhibitor, single point]"},
      {"smiles": "Cc1ccc(S(=O)(=O)N2CCC(C(=O)NCc3ccccc3CN3CCCC3)CC2)cc1C", "Potency": "inconclusive: 35.5 µM [inhibitor, single point]"},
      {"smiles": "CCOc1cc(C2Sc3ccccc3NC3=C2C(=O)c2ccccc23)ccc1O", "note": "(stereo not drawn)", "Potency": "inactive"},
      {"smiles": "Cc1ccc2nc(C3CCCN(C(=S)Nc4cccc(C)c4C)C3)[nH]c2c1", "note": "(stereo not drawn)", "Potency": "inconclusive: 25.9 µM [inhibitor, single point]"},
      {"smiles": "Nc1nc(CSCCO)nc(Nc2ccc(F)cc2)n1", "Potency": "inactive"},
      {"smiles": "CC(C)=CC(=O)OCc1cc([N+](=O)[O-])cc2c1OCOC2", "Potency": "inconclusive: 3.55 µM [activator, single point]"},
      {"smiles": "CC12CN3CC(C)(CN(C1)C3c1c[nH]c3ccccc13)C2=O", "note": "(stereo not drawn)", "Potency": "inactive"},
      {"smiles": "CCOC(=O)c1ccc(NC(=O)CC2C(=O)N(c3ccc(F)cc3)C(=O)N2Cc2ccc(C)cc2)cc1", "note": "(stereo not drawn)", "Potency": "inconclusive: 35.5 µM [inhibitor, single point]"},
      {"smiles": "CCNC(=S)N(Cc1cc2cc(C)ccc2[nH]c1=O)C1CCCC1", "Potency": "inconclusive: 6.31 µM [inhibitor, full curve, poor fit]"},
      {"smiles": "c1ccc(COc2ccc(OCCCCN3CCCC3)cc2)cc1", "Potency": "inconclusive: 35.5 µM [inhibitor, single point]"},
      {"smiles": "COc1cc(C2NC(=O)c3c(sc4c3CCN(C)C4)N2)ccc1OC(=O)c1ccccc1", "note": "(stereo not drawn)", "Potency": "inconclusive: 3.55 µM [activator, partial curve, poor fit]"},
      {"smiles": "Cc1[nH]c(=O)c(C#N)c(C)c1CCC(=O)N(C)CC(=O)Nc1ccc(Cl)c(Cl)c1", "Potency": "inconclusive: 31.6 µM [activator, single point]"},
      {"smiles": "CCOC(=O)c1ccc(NC(=S)N2CCN(c3ccccn3)CC2)cc1", "Potency": "inconclusive: 14.1 µM [inhibitor, partial curve, poor fit]"},
      {"smiles": "CCn1cc(Cl)c(C(=O)Nc2nccs2)n1", "Potency": "inconclusive: 2.82 µM [activator, partial curve, poor fit]"},
      {"smiles": "C/C(CC(=O)Nc1ccc(Cl)c(C(F)(F)F)c1)=N\\NC(=O)c1cnccn1", "Potency": "inconclusive: 8.91 µM [inhibitor, partial curve, poor fit]"},
      {"smiles": "Cc1oc(-c2cccc(Cl)c2)nc1CN1CCC(C(=O)NCCCN2CCCC2=O)CC1", "Potency": "inactive"},
      {"smiles": "N#Cc1c(SCC(=O)Nc2ccccc2)nsc1SCC(=O)Nc1ccccc1", "Potency": "inconclusive: 20 µM [activator, single point]"},
      {"smiles": "CCOc1cc(S(=O)(=O)NCc2ccccc2)c(OCC)cc1-n1cnnn1", "Potency": "inactive"},
      {"smiles": "CCN1CCN(c2nc(-c3ccccc3)nc3ccccc23)CC1", "Potency": "inconclusive: 16.4 µM [inhibitor, single point]"},
      {"smiles": "OCCNc1nc(-c2ccccc2)c2cc(Cl)ccc2n1", "Potency": "inconclusive: 11.2 µM [inhibitor, single point]"},
      {"smiles": "Cc1ccc(N/C=C(\\C#N)S(=O)(=O)c2ccccc2)cc1", "Potency": "inconclusive: 2.82 µM [inhibitor, single point]"},
      {"smiles": "COc1ccc(OC)c(NC(=O)Cc2cccs2)c1", "Potency": "inconclusive: 1.58 µM [inhibitor, partial curve, poor fit]"},
      {"smiles": "COc1ccc(C(=O)C(CN2CCOCC2)c2ccccc2)cc1", "note": "(stereo not drawn)", "Potency": "inconclusive: 7.3 µM [inhibitor, partial curve]"},
      {"smiles": "COc1ccc(N2CCN(CCNC(=O)CCNS(=O)(=O)c3cccs3)CC2)cc1", "Potency": "inconclusive: 15.8 µM [activator, single point]"},
      {"smiles": "O=C(/C(=N/N=C/c1ccc(O)c(O)c1O)c1ccccc1)c1ccccc1", "Potency": "inconclusive: 3.16 µM [inhibitor, partial curve, poor fit]"},
      {"smiles": "Cc1cc(C)c2nc(-n3nc(C)cc3N)cc(C)c2c1", "Potency": "inconclusive: 35.5 µM [inhibitor, single point]"},
      {"smiles": "C=CCN1CCc2cc(O)c(O)cc2C(c2ccccc2)C1", "note": "(stereo not drawn)", "Potency": "inconclusive: 32.6 µM [inhibitor, single point]"},
      {"smiles": "CCOC(=O)C1C2C=CC3(CN(C4CCCC4)C(=O)C13)O2", "note": "(stereo not drawn)", "Potency": "inconclusive: 35.5 µM [activator, single point]"},
      {"smiles": "CN(CC(=O)Nc1ccc(F)c(F)c1F)C(=O)CCN1C(=O)C2CCCCC2C1=O", "note": "(stereo not drawn)", "Potency": "inactive"},
      {"smiles": "O=C(CCCN1C(=O)/C(=C/c2cccs2)SC1=S)NNC(=O)c1ccc(F)cc1", "Potency": "inconclusive: 35.5 µM [inhibitor, single point]"},
      {"smiles": "CCOc1ccc(NC(=O)c2c3c(nc4ccccc24)CCC3)cc1", "Potency": "inactive"},
      {"smiles": "COc1ccc2nc(SCC(=O)/C(C#N)=C(\\C)N)[nH]c2c1", "Potency": "inconclusive: 11.2 µM [inhibitor, single point]"},
      {"smiles": "COc1ccc(CN2CCNC(=O)C2CC(=O)NCc2cn[nH]c2-c2ccccc2)c(F)c1", "note": "(stereo not drawn)", "Potency": "inconclusive: 2.82 µM [activator, full curve, poor fit]"},
      {"smiles": "COC(=O)c1ccc(-c2nc3ccc(C)cc3o2)cc1", "Potency": "inactive"},
      {"smiles": "Cc1cccc(C)c1NC(=O)CCS(=O)(=O)c1cccc2nonc12", "Potency": "inconclusive: 4.47 µM [activator, full curve, poor fit]"},
      {"smiles": "Cc1ccc(NC(=O)c2ccc(S(=O)(=O)C(F)F)cc2)c(C)c1", "Potency": "inactive"},
      {"smiles": "O=C(CNC1CCCCC1)Nc1cc(S(=O)(=O)N2CCOCC2)ccc1Cl", "Potency": "inactive"},
      {"smiles": "COc1ccccc1NC(=O)c1c(NC(=O)c2ccco2)sc2c1CCC2", "Potency": "inactive"}
    ]}
  ]
}
